Results taken from publication PMC6001059.
These are yes or no findings as the source states them, for the method shown. In cells and extracts the contact can be indirect. Some entries that bind do so weakly or less than the wild type.

By UniProt entry, the sequences of proteins in these tests, tags left out.
UniProt P17679: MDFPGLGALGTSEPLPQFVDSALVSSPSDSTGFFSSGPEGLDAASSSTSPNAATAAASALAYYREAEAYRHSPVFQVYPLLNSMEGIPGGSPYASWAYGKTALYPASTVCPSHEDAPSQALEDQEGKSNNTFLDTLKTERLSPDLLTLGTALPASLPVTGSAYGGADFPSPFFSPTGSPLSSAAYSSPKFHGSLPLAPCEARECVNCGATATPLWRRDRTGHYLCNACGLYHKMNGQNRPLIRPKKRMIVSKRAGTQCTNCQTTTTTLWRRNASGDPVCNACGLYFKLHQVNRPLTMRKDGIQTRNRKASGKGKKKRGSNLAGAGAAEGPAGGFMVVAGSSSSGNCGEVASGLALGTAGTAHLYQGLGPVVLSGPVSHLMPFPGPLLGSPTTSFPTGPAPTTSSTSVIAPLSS

Assays:
[1] = biological target: C-terminally 3xFLAG-TEV-Avi tandem affinity tagged murine GATA1 (mouse) (UniProt P17679); test: co-IP; immunoprecipitation with an anti-FLAG antibody; data not shown
[2] = biological target: C-terminally 3xFLAG-TEV-Avi tandem affinity tagged murine GATA1 (mouse) (UniProt P17679); test: pull-down; streptavidin pulldown of biotinylated tagged GATA1 from nuclear extracts of transiently transfected HEK293 cells (24 h); ZNF143 detected by immunoblot

B1: endogenous transcription factor ZNF143 (protein, UniProt P52747 1-638)
chain: MLLAQINRDSQGMTEFPGGGMEAQHVTLCLTEAVTVADGDNLENMEGVSLQAVTLADGSTAYIQHNSKDAKLIDGQVIQLEDGSAAYVQHVPIPKSTGDSLRLEDGQAVQLEDGTTAFIHHTSKDSYDQSALQAVQLEDGTTAYIHHAVQVPQSDTILAIQADGTVAGLHTGDATIDPDTISALEQYAAKVSIDGSESVAGTGMIGENEQEKKMQIVLQGHATRVTAKSQQSGEKAFRCEYDGCGKLYTTAHHLKVHERSHTGDRPYQCEHAGCGKAFATGYGLKSHVRTHTGEKPYRCSEDNCTKSFKTSGDLQKHIRTHTGERPFKCPFEGCGRSFTTSNIRKVHVRTHTGERPYYCTEPGCGRAFASATNYKNHVRIHTGEKPYVCTVPGCDKRFTEYSSLYKHHVVHTHSKPYNCNHCGKTYKQISTLAMHKRTAHNDTEPIEEEQEAFFEPPPGQGEDVLKGSQITYVTGVEGDDVVSTQVATVTQSGLSQQVTLISQDGTQHVNISQADMQAIGNTITMVTQDGTPITVPAHDAVISSAGTHSVAMVTAEGTEGEQVAIVAQDLAAFHTASSEMGHQQHSHHLVTTETRPLTLVATSNGTQIAVQLGEQPSLEEAIRIASRIQQGETPGLDD
[1]
  binding: binds
[2]
  binding: binds
